Assay results: article PMC12801355, “Peptide Amphiphiles Hitchhike on Endogenous Biomolecules for Enhanced Cancer Imaging and Therapy” (Advanced Materials (Deerfield Beach, Fla.), 2025)

Tested on: human plasma proteins
Assay: Mass spectrometry of proteins pulled down with biotinylated SA‐E (SA‐Eb) from human plasma
Assay type: binding
Description: Samples were prepared for mass spectrometry analysis via a pull‐down of a biotinylated version of the SA‐E probe (SA‐Eb, 100 µM) incubated with 50% pooled human plasma at 37 °C for 2 h. Before incubation with the SA‐Eb‐plasma mixture, magnetic streptavidin‐coated beads (Dynabeads MyOne Streptavidin T1, Invitrogen, 65601) were washed with PBS (10 mM, pH 7.4) then blocked with 1% casein equal to the total initial volume of beads for 15 min at room temperature. After blocking, beads were washed again with PBS. Beads were then combined with SA‐Eb‐plasma solution, 25 µL beads to 200 µL mixture. This mixture was then incubated at room temperature for 30 min. After incubation, the remaining solution was removed, and the beads were washed five times with PBS. Bound SA‐Eb was eluted from beads in 30 µL 0.5% Triton X‐100 solution. Magnetic beads were then removed, and the elution was collected for analysis. For plasma control, the incubation with SA‐Eb step was skipped, and 50% plasma in PBS was incubated with beads and washed and eluted using the same method as the SA‐Eb‐plasma solution. The elution solutions were then analyzed by the Proteomics Shared Resource facility at Oregon Health & Science University (See Supporting Information for details).
Sample Preparation. Eluted plasma samples were dried down and stored at -80°C. Samples were thawed at room temperature for 10 min, and 75 µL of SDS protein extraction buffer (5% SDS, 50 mM […]; TEAB) was added to each sample. Samples were shaken in a Thermo mixer for 10 minutes at room temperature and centrifuged at 10,000 g for 5 min. Each sample was transferred from a 0.5 mL tube to a 1.5 mL LoBind centrifuge tube. Samples were reduced by adding 3.4 µL of 0.5 M dithiothreitol and incubated at 95 °C for 10 min. Samples were alkylated by the addition of 6.8 µL of 0.5 M iodoacetamide and were incubated at room temperature for 30 min in the dark. Samples were then acidified by the addition of 8.52 µL of 12% phosphoric acid, and 562 µL of SDS protein binding buffer (90% methanol, 100 mM TEAB, pH 7.51). Samples were transferred 165 µL at a time to S-trap micro columns (Protifi, Farmingdale, NY) and inserted into 1.5 mL of polypropylene tubes. Samples were centrifuged at 4,000 g for 3 min between each addition of the sample. S-trap columns were washed 6 times using 150 µL of 90% methanol containing 100 mM of TEAB followed by centrifugation at 4,000g for 3 min between each wash step. S-trap columns containing the bound sample proteins were transferred to 1.5 mL LoBind centrifuge tubes and 40 µL of 80 ng/µL sequencing grade modified trypsin (Pierce TM Trypsin Protease MS-Grade, XG348166) in 50 mM TEAB was added. S-trap columns were loosely capped, and digestion was performed at 37°C overnight in a humidified chamber.
After completion of digestion, peptides were eluted by sequential addition of 40 µL of TEAB, 40 µL of 0.2% aqueous formic acid, and 40 µl of 50% acetonitrile, 0.2% formic acid, with centrifugation at 4,000 g for 4 min between each addition of elution buffer. The elution fractions were combined and then dried by vacuum centrifugation. Samples were reconstituted by adding 20 µL of 5% formic acid, shaking at 37 °C, and spinning at 15,000 g for 5 min. The supernatant of each sample was transferred to an auto-sample vial.
Data analysis. Mass spectrometry data from all samples were processed using COMET/PAWS against Uniprot_Human_database. Comet (v. 2016.01, rev. 3)^8 was used to search MS2 Spectra against a January 2023 version of canonical FASTA protein database containing human uniprot sequences, and concatenated sequence-reversed entries to estimate error thresholds and 179 common contaminant sequences and their reversed forms. The database processing was performed using python scripts available at https://github.com/pwilmart/fasta_utilities.git and Comet results were processed using the PAW pipeline2 from https://github.com/pwilmart/PAW_pipeline.git.

CCCCCCCCCCCCCCCC(=O)NCC(=O)NCC(=O)NCC(=O)N[C@@H](Cc1c[nH]cn1)C(=O)N[C@@H](C)C(=O)N[C@@H](C)C(=O)N[C@@H](CC(N)=O)C(=O)NCC(=O)N[C@@H](CCC(=O)O)C(=O)N[C@@H](CCC(=O)O)C(=O)N[C@@H](CS)C(=O)N[C@@H](CCC(=O)O)C(=O)O [SA‐E] (Palmitoyl-GGGHAANGEECE-OH)
Percentage, Apolipoproteins (replicate 1): 25.0% | Percentage, Immunoglobulins (replicate 1): 12.4% | Percentage, Other (replicate 1): 28.6% | Total Counts, Apolipoproteins (replicate 1): 891 | Total Counts, Immunoglobulins (replicate 1): 444 | Total Counts, Total (replicate 1): 3569 | Percentage, Apolipoproteins (replicate 2): 32.0% | Percentage, Immunoglobulins (replicate 2): 14.8% | Percentage, Other (replicate 2): 20.7% | Total Counts, Apolipoproteins (replicate 2): 909 | Total Counts, Immunoglobulins (replicate 2): 421 | Total Counts, Total (replicate 2): 2841

Where a SMILES comes first, the peptide text is derived from it. The star is where a group is joined. Palmitoyl = CCCCCCCCCCCCCCCC(=O)*
